Source: PubChem BioAssay AID504771 (Drosophila RNAi Screening Center, 2011)

Screen: 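Fly cell regulators of aggregate formation by polyglutamine huntingtin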 (follow-up of hits)
Cells: Drosophila S2 cells with copper-inducible mutant huntingtin exon 1 (46 glutamines)-eGFP
Knock-down reagent: long dsRNA against Drosophila genes, 250 ng dsRNA per well
Time to read-out: 3 days of knock-down, then 2 days of copper induction before fixing
Challenge: copper sulfate at 400 µM to switch on Htt-Q46-eGFP expression
Read-out: 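Per-well count, size and brightness of GFP aggregates from automated images, set against plate mean and SD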
Hit rule: 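Primary candidate if any aggregate measure lay more than 2 SD from the plate mean; active only if it then passed checks for off-target effects, reproducibility, independent dsRNAs and a promoter counter-screen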
Meaning of the calls: active = confirmed modifier; inactive = primary candidate not confirmed
Only reagents picked out of a larger screen are listed. 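All genes were primary candidates; inactive means validation failed, not no effect; aggregate scores behind calls are not deposited.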 Reagents against one gene are numbered here. Names joined by + are all predicted targets of the reagent. Reagent sequences are not shown.

Silencing of Caf1-55 (Chromatin assembly factor 1, p55 subunit) gave: aggregation phenotype knock-down raises aggregates; inactive. Silencing of CG12499 resulted in: aggregation phenotype knock-down lowers aggregates; inactive. With knock-down of CG12343, the record shows aggregation phenotype knock-down lowers aggregates; inactive. Against Tti1 (Telo2 interacting protein 1), the values are aggregation phenotype knock-down raises aggregates; active. Knock-down of CG33271 resulted in: aggregation phenotype knock-down raises aggregates; inactive. For Ctns (Cystinosin), the entry reads aggregation phenotype knock-down lowers aggregates; inactive.

After knock-down of stg (string) the results were aggregation phenotype knock-down raises aggregates; inactive. Silencing of RpL36 (Ribosomal protein L36) gave: aggregation phenotype knock-down lowers aggregates; inactive. Knock-down of Prosbeta2 (Proteasome beta2 subunit) gave: aggregation phenotype knock-down lowers aggregates; inactive. For SmE (Small ribonucleoprotein particle protein SmE), the values are aggregation phenotype knock-down lowers aggregates; inactive.

3 neighbouring records already listed:
RpL36 (Ribosomal protein L36) → aggregation phenotype: knock-down lowers aggregates; Call: inactive
Prosbeta2 (Proteasome beta2 subunit) → aggregation phenotype: knock-down lowers aggregates; Call: inactive
SmE (Small ribonucleoprotein particle protein SmE) → aggregation phenotype: knock-down lowers aggregates; Call: inactive

Further results follow.
Against Ctr1A (Copper transporter 1A), the values are aggregation phenotype knock-down lowers aggregates; inactive. Knock-down of E(bx) (Enhancer of bithorax) #1 came out at: aggregation phenotype knock-down raises aggregates; inactive. E(bx) (Enhancer of bithorax) #2 scored aggregation phenotype knock-down raises aggregates; inactive. With knock-down of Odj (Oddjob) the results were aggregation phenotype knock-down raises aggregates; active. Prosalpha3 (Proteasome alpha3 subunit) scored aggregation phenotype knock-down lowers aggregates; inactive. With knock-down of Smg5 (Smg5 nonsense mediated mRNA decay factor), the screen gave aggregation phenotype knock-down raises aggregates; active.

Knock-down of vnc + CG42455 came out at: aggregation phenotype knock-down lowers aggregates; active. Silencing of Rrp47 (Ribosomal RNA processing 47) gave: aggregation phenotype knock-down lowers aggregates; inactive. Knock-down of Rpn3 (Regulatory particle non-ATPase 3) came out at: aggregation phenotype knock-down lowers aggregates; active.
